Primary screen of a compound library

Amino acid sequences for entries named in this document (tags omitted).
UniProt E9BF75, entry or part of it: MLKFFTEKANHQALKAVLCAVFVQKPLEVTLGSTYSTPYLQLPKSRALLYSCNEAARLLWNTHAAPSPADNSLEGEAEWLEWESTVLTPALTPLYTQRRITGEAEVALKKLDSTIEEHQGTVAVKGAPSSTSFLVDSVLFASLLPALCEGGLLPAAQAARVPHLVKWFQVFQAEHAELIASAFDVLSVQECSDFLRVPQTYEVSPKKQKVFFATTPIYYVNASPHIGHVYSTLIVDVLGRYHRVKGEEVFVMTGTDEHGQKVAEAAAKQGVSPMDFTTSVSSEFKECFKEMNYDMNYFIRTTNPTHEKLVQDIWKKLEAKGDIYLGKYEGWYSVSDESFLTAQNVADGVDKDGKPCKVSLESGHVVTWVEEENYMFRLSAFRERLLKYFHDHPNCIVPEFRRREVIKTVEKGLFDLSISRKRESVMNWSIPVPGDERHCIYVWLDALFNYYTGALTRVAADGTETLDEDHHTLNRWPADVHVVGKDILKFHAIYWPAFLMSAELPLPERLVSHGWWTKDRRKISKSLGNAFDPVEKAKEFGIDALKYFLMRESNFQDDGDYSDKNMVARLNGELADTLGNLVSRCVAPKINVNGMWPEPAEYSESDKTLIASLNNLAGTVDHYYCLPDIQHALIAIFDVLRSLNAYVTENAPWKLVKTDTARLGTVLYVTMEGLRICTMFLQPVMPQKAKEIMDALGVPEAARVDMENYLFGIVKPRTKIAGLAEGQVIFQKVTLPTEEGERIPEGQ

A: 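Assay on Mycobacterium tuberculosis, filed only as a heat shock assay from Cornell; the read-out is not stated. The concentration is filed as 10 mM, unlikely as a test dose, so the dose is not known. Direction is inferred from retests: higher values go with stronger inhibition. Of about 69,000 compounds tested this way, about 930 (1.4%) reached 50% or more in at least one test.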
B: 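Whole-cell assay for inhibitors of Mycobacterium tuberculosis growth, labelled Cornell in the record; the read-out is not stated. The concentration is filed as 10 mM, unlikely as a test dose, so the dose is not known. The record gives no direction; compounds strong in two other growth screens of this library score well above the rest, so higher reads as stronger inhibition. Size under these conditions: about 53,000 compounds, about 900 of them at 50% or above in at least one test.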
C: 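Primary screen of methionyl-tRNA synthetase; the read-out is not stated. Target: Methionyl-tRNA synthetase (putative), Leishmania donovani (UniProt E9BF75). The test concentration is not given. The values are filed as inhibition. Of about 68,000 compounds tested this way, about 24 (0.035%) reached 50% or more in at least one test.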

All values are in %.
The controls that fix the scale are not given in the record; negative values are as filed.
The compounds are a random part of those screened.
A dash means the value is not listed here; it may have been measured.

| compound | A | B | C |
|---|---|---|---|
| `CS(=O)(=O)c1cncnc1C1CCCN(C(=O)Cc2ccccc2F)C1` (configuration not stated) | -8.637 | -7.988 | 5.28 |
| `Cc1ncc(-c2ccccn2)c(CCNC(=O)CCC2CCCO2)n1` (configuration not stated) | 13.07 | 15.51 | 13.02 |
| `NC(=O)c1ccc(OCC(=O)NS(=O)(=O)c2ccc3c(c2)CCC3)cc1` | -0.8282 | - | 13.22 |
| `CC(O)CN1CCN(Cc2coc(-c3ccccc3)n2)CC1` (configuration not stated) | -180.5 | - | 7.553 |
| `Cc1ccc(OCCCNC(=O)NC(C)c2nncn2C)cc1` (configuration not stated) | -3.689 | - | 21.53 |
| `C[C@H](O)CNc1cc(-c2ccccc2)ncn1` | -16.71 | -14.17 | 4.612 |
| `CS(=O)(=O)N1CCC(c2ccncn2)CC1` | -23.24 | -3.001 | 11.61 |
| `O=C(O)C(F)(F)F.[H][C@@]12CCN(Cc3cccc(C)c3)C[C@]1(C(=O)NC)CCO2` | 0.1932 | 19.39 | - |
| `[H][C@@]12CCN(C(=O)c3ccc(C)o3)[C@]1([H])CCC(=O)N2CC1CC1` | 6.439 | 15.84 | - |
| `CS(=O)(=O)c1snnc1C1CCN(Cc2ccncc2)CC1` | -5.518 | 1.992 | 7.877 |
| `O=C(CCNC(=O)c1ccccc1N1CCOCC1)NC1CCCC1` | -18.64 | 45.78 | 14.5 |
| `O=C(O)C(F)(F)F.O=C(O)C(F)(F)F.c1cncc(OCC2CC3(CCN(CC4CC4)CC3)CO2)c1` (configuration not stated) | -40.25 | 0.8314 | - |
| `[H][C@]12CC[C@]([H])(CN(Cc3cscn3)C1)N(Cc1c(C)noc1C)C2=O` | 5.018 | 15.03 | - |
| `[H][C@@]12COC(=O)N1CCN(C(=O)COC)C2` | 4.77 | -4.758 | - |
| `CCc1cnc(N2CCCOC(CN3CCCC3)C2)nc1` (configuration not stated) | 35.17 | 4.265 | 13.73 |
| `O=C(O)C(F)(F)F.O=C(O)C(F)(F)F.[H][C@@]12CN(Cc3ccccn3)C[C@H](C(=O)Nc3cccnc3)[C@]1([H])CCO2` | 4.747 | -21.37 | - |
| `Cc1cc2ccccc2n1CCC(=O)N1CCCC1Cn1cccn1` (configuration not stated) | 18.36 | 91.97 | 11.34 |
| `Fc1cnc(N2CCCC3(CCN(Cc4ccoc4)C3)C2)nc1` (configuration not stated) | - | - | 10 |
| `CC1CCN(S(=O)(=O)c2ccc(C(=O)N3CCSCC3)cc2)CC1` | -0.908 | 0.5788 | 6.971 |
| `Cc1ccc(-c2nc(CC(=O)N3CCN(c4cnccn4)CC3)cs2)o1` | -6.12 | 7.265 | 20.34 |
| `CCS(=O)(=O)c1ccc(N2CCC(NC(=O)C(C)SC)CC2)cc1` (configuration not stated) | 5.695 | -2.734 | 22.03 |
| `CC[C@@H]1N(Cc2cccnc2)CCC[C@]12CCC(=O)N2C` | - | - | 13.78 |
| `Cc1nn(C(C)C)c(C)c1S(=O)(=O)Nc1cccc(F)c1` | 11.75 | 29.53 | 15.25 |
| `CCS(=O)(=O)Nc1ccc2c(c1)C1(CCOCC1)CN2C` | - | - | 5.279 |
| `O=C(NCC1(O)CCOc2ccccc21)Nc1ccccc1` (configuration not stated) | -2.411 | 3.709 | 13.04 |
| `CN(CC1CCOC1)c1ccc(Br)cn1` (configuration not stated) | -23.93 | -22.84 | 14.04 |
| `CCS(=O)(=O)N1CCOC2(CCCN(c3ccccn3)C2)C1.O=C(O)C(F)(F)F` (configuration not stated) | -21.65 | 17.26 | - |
| `CNC(=O)N1CCC2(CC1)c1ncc(C)n1CCN2C.O=C(O)C(F)(F)F.O=C(O)C(F)(F)F` | 26.07 | -7.456 | - |
| `CN(C)Cc1noc2c1CN(C(=O)c1ccncc1)CC2.O=C(O)C(F)(F)F.O=C(O)C(F)(F)F` | 2.597 | -29.31 | - |
| `CC(C)CC(O)C1CCN(C(=O)c2ccc(C(F)(F)F)nc2O)CC1` (configuration not stated) | -10.93 | 33.65 | 12.32 |
| `CCOCc1cc(CN2CCn3c(CO)nnc3C2)ccc1OC.O=C(O)CC(O)(CC(=O)O)C(=O)O` | -8.804 | -14.15 | - |
| `O=C(c1ccc2[nH]nnc2c1)N1CCCC(n2cccn2)C1` (configuration not stated) | 25.5 | -28.87 | 14.78 |
| `O=C(O)C(F)(F)F.c1ccn(Cc2noc3c2CN(Cc2ccsc2)CC3)c1` | -6.59 | -35.58 | - |
| `COC(C)c1noc(CN2CCCNCC2)n1` (configuration not stated) | -15.66 | 5.849 | 14.34 |
| `COCCS(=O)(=O)N(Cc1ccsc1)c1ccccc1` | -8.426 | - | 14.65 |
| `CCN(Cc1ccncc1)c1nc(C)nc2oc(C)nc12` | -23.06 | 33.89 | -0.2564 |
| `CN1CCN([C@@H]2CCN(C3CCOC3)[C@H]2Cc2cnn(C)c2)CC1` (some centres not stated) | - | - | 2.92 |
| `CC(C)n1cnc2c1C(C(=O)N1CCCC1)N(S(C)(=O)=O)CC2` (configuration not stated) | -22.06 | 29.25 | 16.3 |
| `CCS(=O)(=O)N1CC(=O)N(Cc2ccccc2OC)CC(O)C1` (configuration not stated) | 62.67 | -19.52 | 6.849 |
| `Cn1cc(CCNC(=O)C2(c3cccc(Cl)c3)CC2)cn1` | 12.78 | -8.691 | 4.326 |
| `CN1CC(c2ccccc2)CC2(CCN(CC(=O)N(C)C)CC2)C1` (configuration not stated) | 11.01 | 6.267 | 8.148 |
| `Cc1cc(CN2CCN(CC(O)c3ccc(C)c(C)c3)CC2)no1` (configuration not stated) | -11.37 | - | 13.24 |
| `CC(Cn1cccn1)NC(=O)NCc1ccc(OC2CCCC2)nc1` (configuration not stated) | -26.57 | -25.54 | 13.01 |
| `O=C(O)C(F)(F)F.O=C(O)C(F)(F)F.[H][C@@]12CN(Cc3ccccc3)C[C@]1([H])C(=O)N(CCN1CCCC1)C2` | 1.586 | 20.83 | - |
| `COc1ccc(NC(=O)Nc2c(O)c3ccccc3oc2=O)cc1` | -1.025 | - | 2.87 |
| `CC(C)(C)C(=O)N1CCC(c2noc(C3CCC(=O)N3)n2)CC1` (configuration not stated) | -4.046 | 46.57 | 15.41 |
| `CN1CCN(Cc2ccccc2CNC(=O)c2ccc(Cl)cc2F)CC1` | 22.47 | -23.99 | 8.696 |
| `O=S1(=O)CCC(S(=O)(=O)c2cccc(S(=O)(=O)N3CCOCC3)c2)C1` (configuration not stated) | -4.153 | 24.32 | 15.45 |
| `O=C(NC[C@H]1C[C@@H]2CN(C(=O)c3ccno3)C[C@@H]2O1)C1CCC1` | - | - | 14.49 |
| `COc1cc(CNCC(O)c2ccc(C)cc2)cc2c1OCO2` (configuration not stated) | - | - | 23.46 |
| `Cc1ccc(C(=O)CN(C2=NCCCCC2)c2ccccc2)cc1` | - | - | 12.83 |
| `CN(C)C(=O)CN1CCC2(CCN(C(=O)N(C)C)CC2)C1=O` | -8.953 | -15.61 | -0.5602 |
| `Cc1cc(CN2CCN(C(C)C)C(CCO)C2)[nH]n1` (configuration not stated) | -24.99 | 6.66 | 6.859 |
| `[H][C@]12CC[C@]([H])(C1)[C@H](Nc1cc(CC)nc3ccnn13)C2` | -8.342 | 23.98 | - |
| `CCn1c(N)nc2cc(C(=O)N3CCC(N4CCCC4)CC3)cnc21` | 19.06 | 10.26 | 0.9926 |
| `CCC[C@@H]1CN(Cc2c[nH]c(CC3CCCC3)n2)C[C@H]1C(=O)O` | 2.092 | 4.157 | 3.509 |
| `COCC1(C(=O)N[C@H]2CN(c3nnc(C)s3)C[C@@H]2C2CC2)CCC1` | -36.68 | -19.25 | -0.8475 |
| `Cc1cnc(NCCCN2CCCCC2CO)nc1` (configuration not stated) | 19.97 | -12.66 | 14.71 |
| `Cc1cnc(N2CCC3(CCCN3C(=O)c3ccco3)CC2)nc1` | - | - | 20.73 |
| `CC(C)(NC(=O)c1coc(COc2cccc(F)c2)n1)C(N)=O` | 13.14 | 8.84 | 11.34 |
| `Fc1cccc(Cl)c1CN1CCC(c2n[nH]c3ncccc23)CC1` | -17.25 | -21.11 | 6.771 |
| `COCCN1CCC2(COCCN(Cc3ccc4c(c3)OCO4)C2)C1.O=C(O)C(F)(F)F.O=C(O)C(F)(F)F` (configuration not stated) | -9.9 | 13.82 | - |
| `CC(=O)N1CC(=O)N(c2cnn(C)c2)CC12CCN(Cc1cccs1)C2` (configuration not stated) | - | - | 6.731 |
| `Nc1cc2c(nn1)CCN(C(=O)c1csc(-c3cccs3)n1)C2` | -21.34 | 6.848 | 36.12 |
| `COc1cccc(CN2CCC3(CC2)CCN(c2ncccn2)C3)c1` | - | - | 6.574 |
| `O=C(O)C(F)(F)F.O=C(O)C(F)(F)F.[H][C@@]12COC[C@]1(COCC1CC1)CN(Cc1ccncc1)C2` | -16.97 | - | - |

5 of the entries, repeated:

compound,A,B,C
CC(C)CC(O)C1CCN(C(=O)c2ccc(C(F)(F)F)nc2O)CC1 (configuration not stated),-10.93,33.65,12.32
[H][C@@]12CCN(C(=O)c3ccc(C)o3)[C@]1([H])CCC(=O)N2CC1CC1,6.439,15.84,-
CN1CC(c2ccccc2)CC2(CCN(CC(=O)N(C)C)CC2)C1 (configuration not stated),11.01,6.267,8.148
C[C@H](O)CNc1cc(-c2ccccc2)ncn1,-16.71,-14.17,4.612
COc1cc(CNCC(O)c2ccc(C)cc2)cc2c1OCO2 (configuration not stated),-,-,23.46

Data taken from ChEMBL document CHEMBL3988442, “University of Dundee, Small-Polar-MMV Screening Library” (2021).